According to patent US20230265190A1:
These are yes or no findings as the source states them, for the method shown. Some entries that bind do so weakly or less than the wild type.

Amino acid sequences for entries named in this document (tags omitted). Residues count along the entry.
UniProt P06729, residues 25-209: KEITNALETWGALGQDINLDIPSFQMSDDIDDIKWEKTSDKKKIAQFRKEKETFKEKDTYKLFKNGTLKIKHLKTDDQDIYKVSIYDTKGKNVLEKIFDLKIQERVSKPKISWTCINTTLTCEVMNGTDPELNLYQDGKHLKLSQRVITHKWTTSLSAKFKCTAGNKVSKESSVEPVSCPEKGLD

B1: hIEE-Fv(+)22 (protein)
chain: DVVMTQSPPSLLVTLGQPASISCRSSQSLLHSSGNTYLNWLLQRPGQSPQPLIYLVSKLESGVPDRFSGSGSGTDFTLKISGVEAEDVGVYYCMQFTHYPYTFGQGTKLEIKGGGGSGGGGSGGGGSQVQLVQSGAEVKKPGASVKVSCKASGYTFTEYYMYWVRQAPGQGLELMGRIDPEDGSIDYVEKFKKKVTLTADTSSSTAYMELSSLTSDDTAVYYCARGKFNYRFAYWGQGTLVTVSSGGGSKHTPKLEIKVTPSDAIVREGDSVTMTCEVSSSNPEYTTVSWLKDGTSLKKQNTFTLNLREVTKDQSGKYCCQVSNDVGPGRSEEVFLQVQYAPEPSTVQILHSPAVEGSQVEFLCMSLANPLPTNYTWYHNGKEMQGRTEEKVHIPKILPWHAGTYSCVAENILGTGQRGPGAELDVQYPPKKVTTVIQNPMPIREGDTVTLSCNYNSSNPSVTRYEWKPHGAWEEPSLGVLKIQNVGWDNTTIACAACNSWCSWASPVALNVQYAPRDVRVRKIKPLSEIHSGNSVSLQCDFSSSHPKEVQFFWEKNGRLLGKESQLNFDSISPEDAGSYSCWVNNSIGQTASKAWTLEVLYAPRRLRVSMSPGDQVMEGKSATLTCESDANPPVSHYTWFDWNNQSLPYHSQKLRLEPVKVQHSGAYWCQGTNSVGKGRSPLSTLTVYYSPETIGRRVAVGLGSCLAILILAICGLKLQRRWKRTQSQQG
B2: hIEE-Fv(+)ABC (protein)
chain: DVVMTQSPPSLLVTLGQPASISCRSSQSLLHSSGNTYLNWLLQRPGQSPQPLIYLVSKLESGVPDRFSGSGSGTDFTLKISGVEAEDVGVYYCMQFTHYPYTFGQGTKLEIKGGGGSGGGGSGGGGSQVQLVQSGAEVKKPGASVKVSCKASGYTFTEYYMYWVRQAPGQGLELMGRIDPEDGSIDYVEKFKKKVTLTADTSSSTAYMELSSLTSDDTAVYYCARGKFNYRFAYWGQGTLVTVSSGGGSQSPTPSPTGLTTAKMPSVPLSSDPLPTHTTAFSPASTFERENDFSETTTSLSPDNTSTQVSPDSLDNASAFNTTGVSSVQTPHLPTHADSQTPSAGTDTQTFSGSAANAKLNPTPGSNAISDVPGERSTASTFPTDPVSPLTTTLSLAHHSSAALPARTSNTTITANTSDAYLNASETTTLSPSGSAVISTTTIATTPSKPTCDEKYANITVDYLYNKETKLFTAKLNVNENVECGNNTCTNNEVHNLTECKNASVSISHNSCTAPDKTLILDVPPGVEKFQLHDCTQVEKADTTICLKWKNIETFTCDTQNITYRFQCGNMIFDNKEIKLENLEPEHEYKCDSEILYNNHKFTNASKIIKTDFGSPGEPQIIFCRSEAAHQGVITWNPPQRSFHNFTLCYIKETEKDCLNLDKNLIKYDLQNLKPYTKYVLSLHAYIIAKVQRNGSAAMCHFTTKSAPPSQVWNMTVSMTSDNSMHVKCRPPRDRNGPHERYHLEVEAGNTLVRNESHKNCDFRVKDLQYSTDYTFKAYFHNGDYPGEPFILHHSTSYNSKALIAFLAFLIIVTSIALLVVLYKIYDLHKKRSCN
B3: hIEE-Fv(+)RO (protein)
chain: DVVMTQSPPSLLVTLGQPASISCRSSQSLLHSSGNTYLNWLLQRPGQSPQPLIYLVSKLESGVPDRFSGSGSGTDFTLKISGVEAEDVGVYYCMQFTHYPYTFGQGTKLEIKGGGGSGGGGSGGGGSQVQLVQSGAEVKKPGASVKVSCKASGYTFTEYYMYWVRQAPGQGLELMGRIDPEDGSIDYVEKFKKKVTLTADTSSSTAYMELSSLTSDDTAVYYCARGKFNYRFAYWGQGTLVTVSSGGGSQSPTPSPTDAYLNASETTTLSPSGSAVISTTTIATTPSKPTCDEKYANITVDYLYNKETKLFTAKLNVNENVECGNNTCTNNEVHNLTECKNASVSISHNSCTAPDKTLILDVPPGVEKFQLHDCTQVEKADTTICLKWKNIETFTCDTQNITYRFQCGNMIFDNKEIKLENLEPEHEYKCDSEILYNNHKFTNASKIIKTDFGSPGEPQIIFCRSEAAHQGVITWNPPQRSFHNFTLCYIKETEKDCLNLDKNLIKYDLQNLKPYTKYVLSLHAYIIAKVQRNGSAAMCHFTTKSAPPSQVWNMTVSMTSDNSMHVKCRPPRDRNGPHERYHLEVEAGNTLVRNESHKNCDFRVKDLQYSTDYTFKAYFHNGDYPGEPFILHHSTSYNSKALIAFLAFLIIVTSIALLVVLYKIYDLHKKRSCN

target: fluorescently tagged ectodomain of CD2 (UniProt P06729); assay: flow cytometry, fluorescently tagged CD2 ectodomain on transfected cells

binding, binds:
B1
B2
B3

target: fluorescently tagged ectodomain of CD2 (UniProt P06729); assay: flow cytometry, fluorescently tagged CD2 ectodomain on cells transfected with the device mRNA

binding, binds:
B1
B2
B3
